PubChem BioAssay AID1508588, Peter MacCallum Cancer Centre | 2020
In all, the deposit lists about 18,000 reagents; this is a random part of them. Over the whole deposit, 790 (4.4%) got an active call. 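Calls rest on a combination of fold-change classes in drug and vehicle arms, not all shown here.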

Screen: 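Genome-wide search for knock-downs that heighten vemurafenib action in melanoma cells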 (primary screen)
System: human WM266.4 melanoma cells (BRAF V600 mutant)
Reagents: siRNA pool against human genes, 40 nM
Time to read-out: 96 h from transfection to read-out
Challenge: vemurafenib 300 nM (about IC25), added 48 h after transfection, for 48 h; comparison arm got DMSO vehicle only
Measurement: 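Ratios to non-targeting siRNA for cell gain, counted as DAPI nuclei after minus before drug and averaged over two replicates, and for absorbance-read medium lactate per cell; both binned into fold-change classes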
Reading the numbers: cell gain with vemurafenib: higher = more cell gain than with non-targeting siRNA; lactate per cell with vemurafenib: higher = more lactate made per cell
Hit rule: 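a knock-down counts as enhancing when its fold-change classes with vehicle and with vemurafenib, taken together, show a stronger drug effect on cell gain or lactate per cell; exact class pairs not stated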
Meaning of the calls: active = enhances vemurafenib effect; inactive = no enhancement seen

The first 11 records, to show the layout:
gene | cell gain with vemurafenib | lactate per cell with vemurafenib | call
AP3S2 (adaptor related protein complex 3 subunit sigma 2) | 0.83 | 0.94 | inactive
THAP7 (THAP domain containing 7) | 0.5 | 1.33 | inactive
TTLL10 (tubulin tyrosine ligase like 10) | 0.55 | 1.13 | inactive
CTDNEP1 (CTD nuclear envelope phosphatase 1) | 0.73 | 1.24 | inactive
MOB1A (MOB kinase activator 1A) | 0.21 | 0.78 | inactive
PLAAT4 (phospholipase A and acyltransferase 4) | 0.68 | 1.42 | inactive
MYO5B (myosin VB) | 0.87 | 0.99 | inactive
LRRC17 (leucine rich repeat containing 17) | 0.68 | 1.23 | inactive
HAT1 (histone acetyltransferase 1) | 0.96 | 0.6 | inactive
PKD1L1-AS1 (PKD1L1 antisense RNA 1) | 0.58 | 0.98 | inactive
PTH1R (parathyroid hormone 1 receptor) | 0.29 | 0.73 | inactive

The list itself, from the first entry:
gene | cell gain with vemurafenib | lactate per cell with vemurafenib | call
AP3S2 (adaptor related protein complex 3 subunit sigma 2) | 0.83 | 0.94 | inactive
THAP7 (THAP domain containing 7) | 0.5 | 1.33 | inactive
TTLL10 (tubulin tyrosine ligase like 10) | 0.55 | 1.13 | inactive
CTDNEP1 (CTD nuclear envelope phosphatase 1) | 0.73 | 1.24 | inactive
MOB1A (MOB kinase activator 1A) | 0.21 | 0.78 | inactive
PLAAT4 (phospholipase A and acyltransferase 4) | 0.68 | 1.42 | inactive
MYO5B (myosin VB) | 0.87 | 0.99 | inactive
LRRC17 (leucine rich repeat containing 17) | 0.68 | 1.23 | inactive
HAT1 (histone acetyltransferase 1) | 0.96 | 0.6 | inactive
PKD1L1-AS1 (PKD1L1 antisense RNA 1) | 0.58 | 0.98 | inactive
PTH1R (parathyroid hormone 1 receptor) | 0.29 | 0.73 | inactive
RAD50 (RAD50 double strand break repair protein) | 0.67 | 0.82 | inactive
S100A8 (S100 calcium binding protein A8) | 0.35 | 0.26 | inactive
DPH3 (diphthamide biosynthesis 3) | 0.9 | 0.74 | inactive
FEZF1 (FEZ family zinc finger 1) | 0.9 | 0.64 | inactive
SLC14A1 | 0.76 | 0.7 | active
PIERCE1 (piercer of microtubule wall 1) | 0.25 | 1.8 | inactive
DUSP4 (dual specificity phosphatase 4) | 0.7 | 4.12 | inactive
HCFC2 (host cell factor C2) | 0.93 | 1.05 | inactive
MAD2L1 (mitotic arrest deficient 2 like 1) | 0.39 | 1.04 | inactive
OPN1MW2 (opsin 1, medium wave sensitive 2) | 0.59 | 1.03 | inactive
HES4 (hes family bHLH transcription factor 4) | -0.11 | 1.81 | inactive
BABAM2 (BRISC and BRCA1 A complex member 2) | 0.11 | 0.96 | inactive
H6PD (hexose-6-phosphate dehydrogenase/glucose 1-dehydrogenase) | 0.74 | 0.63 | inactive
RAB43 (RAB43, member RAS oncogene family) | 0.45 | 1.77 | inactive
PGA4 (pepsinogen A4) | 0.23 | 0.52 | inactive
SNX10 (sorting nexin 10) | 0.62 | 1.61 | inactive
KCNN3 (potassium calcium-activated channel subfamily N member 3) | 0.34 | 0.75 | inactive
RGS21 (regulator of G protein signaling 21) | 0.93 | 0.77 | inactive
DDX56 (DEAD-box helicase 56) | 0.61 | 1.06 | inactive
IGIP (IgA inducing protein) | 0.33 | 1.76 | inactive
TMED3 (transmembrane p24 trafficking protein 3) | 0.07 | 1.13 | inactive
TRMT61A (tRNA methyltransferase 61A) | 1 | 0.68 | inactive
RAB15 (RAB15, member RAS oncogene family) | 0.66 | 0.66 | inactive
MTHFR (methylenetetrahydrofolate reductase) | 0.68 | 0.66 | inactive
LCE2D (late cornified envelope 2D) | 0.63 | 0.52 | inactive
PITX3 (paired like homeodomain 3) | 1.29 | 0.78 | inactive
ARMC10 (armadillo repeat containing 10) | 0.48 | 0.46 | inactive
JARID2 (jumonji and AT-rich interaction domain containing 2) | 0.57 | 0.37 | inactive
PANX2 (pannexin 2) | 0.6 | 1.54 | inactive
UNC79 (unc-79 subunit of NALCN channel complex) | 0.21 | 1.72 | inactive
PTPRH (protein tyrosine phosphatase receptor type H) | 0.41 | 0.82 | inactive
C8orf44 (chromosome 8 putative open reading frame 44) | 0.65 | 1.38 | inactive
HINT2 (histidine triad nucleotide binding protein 2) | 0.23 | 1.81 | inactive
RUFY1 (RUN and FYVE domain containing 1) | 0.92 | 1.12 | inactive
SLC7A10 | 0.78 | 0.58 | inactive
CAMK1D (calcium/calmodulin dependent protein kinase ID) | 0.77 | 0.4 | inactive
ATP12A (ATPase H+/K+ transporting non-gastric alpha2 subunit) | 1 | 0.95 | inactive
METRN (meteorin, glial cell differentiation regulator) | 0.93 | 0.83 | inactive
PLIN3 (perilipin 3) | 0.18 | 3.09 | inactive
GNPTG (N-acetylglucosamine-1-phosphate transferase subunit gamma) | 0.35 | 1.63 | inactive
HIRA (histone cell cycle regulator) | 0.44 | 0.64 | inactive
CPXM1 (carboxypeptidase X, M14 family member 1) | 0.35 | 0.37 | inactive
ARSK (arylsulfatase family member K) | 1.01 | 0.7 | inactive
PLOD2 (procollagen-lysine,2-oxoglutarate 5-dioxygenase 2) | 0.65 | 0.8 | inactive
CGN (cingulin) | 0.88 | 0.84 | inactive
SLC25A15 | 0.86 | 1.07 | inactive
THBS2 (thrombospondin 2) | 0.61 | 0.06 | inactive
DUSP3 (dual specificity phosphatase 3) | 0.85 | 1.14 | inactive
ASPHD2 (aspartate beta-hydroxylase domain containing 2) | 0.59 | 0.84 | inactive
OSGIN2 (oxidative stress induced growth inhibitor family member 2) | 0.64 | 1.29 | inactive
PHF3 (PHD finger protein 3) | 0.76 | 0.76 | inactive
VSTM4 (V-set and transmembrane domain containing 4) | 0.65 | 1.08 | inactive
ZRANB1 (zinc finger RANBP2-type containing 1) | 0.53 | 1.67 | inactive
ADRA1A (adrenoceptor alpha 1A) | 0.97 | 1.02 | inactive
STIM2 (stromal interaction molecule 2) | 0.42 | 1.46 | inactive
CACNA1C (calcium voltage-gated channel subunit alpha1 C) | 0.28 | 2.3 | inactive
DUS4L (dihydrouridine synthase 4 like) | 0.26 | 0.74 | inactive
TAPT1 (transmembrane anterior posterior transformation 1) | 0 | 3.6 | inactive
RSPH1 (radial spoke head component 1) | 0.82 | 0.76 | inactive
ARSA (arylsulfatase A) | 0.29 | 1.85 | inactive
RORB (RAR related orphan receptor B) | 0.41 | 1.36 | inactive
ASB13 (ankyrin repeat and SOCS box containing 13) | 0.57 | 1.23 | inactive
DPM2 (dolichyl-phosphate mannosyltransferase subunit 2, regulatory) | 0.41 | 0.52 | inactive
GNA15 (G protein subunit alpha 15) | 0.41 | 0.86 | inactive
FXYD4 (FXYD domain containing ion transport regulator 4) | 0.73 | 0.54 | inactive
SENP1 (SUMO specific peptidase 1) | 1.07 | 0.48 | inactive
SNORC | 0.41 | 1.54 | inactive
IRF9 (interferon regulatory factor 9) | 0.26 | 1 | inactive
DICER1 (dicer 1, ribonuclease III) | 0.38 | 0.74 | inactive
SPACDR (sperm acrosome developmental regulator) | 0.28 | 0.31 | inactive
ATE1 (arginyltransferase 1) | 0.93 | 0.78 | inactive
POLH (DNA polymerase eta) | 0.31 | 1.29 | inactive
SLC6A8 | 0.52 | 1.14 | inactive
ISG15 (ISG15 ubiquitin like modifier) | 0.21 | 0.82 | inactive
EIF1AD | 0.76 | 1.17 | inactive
EVA1B (eva-1 homolog B) | 0.65 | 0.56 | inactive
F8A1 (coagulation factor VIII associated 1) | 0.63 | 1.66 | inactive
ANGPT2 (angiopoietin 2) | 0.71 | 1.23 | inactive
DNAJB12 (DnaJ heat shock protein family (Hsp40) member B12) | 0.42 | 1.62 | inactive
LMNTD1 (lamin tail domain containing 1) | 0.52 | 0.88 | inactive
RPL32 (ribosomal protein L32) | -0.1 | -0.28 | inactive
OR10G9 (olfactory receptor family 10 subfamily G member 9) | 0.59 | 1.85 | inactive
PTF1A (pancreas associated transcription factor 1a) | 0.4 | 1.68 | inactive
PRG3 (proteoglycan 3, pro eosinophil major basic protein 2) | 0.38 | 0.4 | active
SMPD1 (sphingomyelin phosphodiesterase 1) | 0.47 | 0.42 | inactive
CDX1 (caudal type homeobox 1) | 0.63 | 1.43 | inactive
KANSL1L (KAT8 regulatory NSL complex subunit 1 like) | 0.83 | 0.56 | inactive
PDE9A (phosphodiesterase 9A) | 0.34 | 1.5 | inactive
SCML4 (Scm polycomb group protein like 4) | 0.24 | 1.14 | inactive
AZI2 (5-azacytidine induced 2) | 0.87 | 0.8 | inactive
CLNK (cytokine dependent hematopoietic cell linker) | 0.29 | 0.9 | inactive
PPL (periplakin) | 1 | 0.44 | inactive
UBTD2 (ubiquitin domain containing 2) | 0.36 | 1.13 | inactive
PHF2 (PHD finger protein 2) | 0.03 | 1.09 | inactive
CRYBB3 (crystallin beta B3) | 0.48 | 0.65 | inactive
SULT1C3 (sulfotransferase family 1C member 3) | 0.56 | 0.73 | inactive
